Reference: PubChem BioAssay AID504774 (Drosophila RNAi Screening Center, 2011)
The screen tested about 23,000 reagents; below is an unselected part of those with a known target gene and a result. 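Values are quantile-normalised luminescence on an arbitrary scale; higher means more cells surviving MMS.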 The numbers tell different reagents against one gene apart. A plus sign joins genes that one reagent is predicted to hit. Reagent sequences are not shown.

Test: 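Knock-downs that shift viability of MMS-exposed cells relative to untreated ones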 (primary screen)
Cell system: Drosophila Kc167 cells
Reagent: long dsRNA against Drosophila genes, about 0.25 µg dsRNA per well
Time to read-out: about 6 days: 3 days knock-down, then 3 days with or without MMS
Treatment: methyl methanesulphonate 0.004% (w/v) for 3 days after knock-down
Measurement: 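ATP-dependent luminescence as a measure of live cells in MMS-exposed wells, quantile normalised within each plate, with replicate values also given as a mean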
Reading the numbers: mean viability with MMS and viability with MMS: higher = more surviving cells after MMS

no.	target gene	reagent no.	mean viability with MMS	viability with MMS, replicate 1	viability with MMS, replicate 2
1	msps (GeneID 41952)	1	3.49e6	3.95e6	3.98e6
2	Octbeta1R (GeneID 42652)	1	3.53e6	4.20e6	3.80e6
3	CG17707 (GeneID 5740408)	1	3.57e6	4.10e6	3.98e6
4	CG17005 (GeneID 34249)	1	3.52e6	4.01e6	4.00e6
5	Had2 (GeneID 36624)	1	3.55e6	3.88e6	4.18e6
6	TTLL1B (GeneID 326203)	1	3.64e6	4.12e6	4.15e6
7	ftz-f1 (GeneID 40045)	1	3.36e6	3.71e6	3.83e6
8	pasi1 (GeneID 42139)	1	3.72e6	4.00e6	4.15e6
9	pasi1 (GeneID 42139)	2	3.46e6	3.89e6	3.99e6
10	l(1)sc (GeneID 30983)	1	3.54e6	3.88e6	4.14e6
11	Nak (GeneID 35154)	1	3.55e6	3.91e6	4.15e6
12	CG42583 (GeneID 8674103)	1	3.57e6	3.99e6	4.08e6
13	Klp31E (GeneID 34422)	1	3.61e6	4.36e6	3.85e6
14	CG12773 (GeneID 31082)	1	3.35e6	3.78e6	3.86e6
15	Sms (GeneID 39403)	1	3.42e6	3.85e6	3.87e6
16	CG32533 (GeneID 32933)	1	3.61e6	4.08e6	4.13e6
17	CG32533 (GeneID 32933)	2	3.44e6	3.92e6	3.90e6
18	CG15577 (GeneID 50378)	1	3.70e6	4.29e6	4.10e6
19	Cpr49Af (GeneID 36352)	1	3.43e6	3.96e6	3.91e6
20	CG7031 (GeneID 42704)	1	2.88e6	3.58e6	3.58e6
21	CG7031 (GeneID 42704)	2	3.48e6	3.93e6	4.00e6
22	Polr3G (GeneID 39941)	1	3.51e6	3.97e6	4.01e6
23	CG31740 (GeneID 261618)	1	3.62e6	4.11e6	4.08e6
24	Acp53C14a (GeneID 36872)	1	3.49e6	4.03e6	3.88e6
25	wapl (GeneID 31187)	1	3.54e6	4.16e6	3.88e6
26	CG34046 (retired record) (GeneID 3885653)	1	3.60e6	4.03e6	4.09e6
27	nudE (GeneID 39169)	1	3.62e6	4.14e6	4.03e6
28	nudE (GeneID 39169)	2	3.42e6	3.75e6	3.98e6
29	yem (GeneID 43439)	1	3.55e6	3.85e6	4.19e6
30	yem (GeneID 43439)	2	3.40e6	3.83e6	3.83e6
31	CG6628 (GeneID 39183)	1	3.55e6	3.98e6	4.08e6
32	pkm (GeneID 32108)	1	3.64e6	3.98e6	4.17e6
33	Cyp6a14 (retired record) (GeneID 8674017)	1	3.49e6	3.93e6	4.00e6
34	pb (GeneID 40826)	1	3.58e6	4.12e6	3.98e6
35	pb (GeneID 40826)	2	3.33e6	3.81e6	3.80e6
36	kl-2 (GeneID 3355181)	1	3.50e6	4.04e6	3.92e6
37	Dolk (GeneID 36856)	1	3.57e6	4.11e6	3.98e6
38	sals (GeneID 41377)	1	3.53e6	3.94e6	4.06e6
39	sals (GeneID 41377)	2	3.49e6	3.96e6	3.99e6
40	PGAP2 (GeneID 33258)	1	3.16e6	3.35e6	3.61e6
41	Rbp (GeneID 41880)	1	2.97e6	3.57e6	3.55e6
42	Rbp (GeneID 41880)	2	3.49e6	3.83e6	4.07e6
43	CG13484 (GeneID 39560)	1	3.46e6	3.93e6	3.88e6
44	CG1924 (GeneID 32180)	1	3.64e6	4.09e6	4.14e6
45	CG17999 (GeneID 37357)	1	3.63e6	4.05e6	4.22e6
46	fliI (GeneID 33110)	1	1.85e6	4.04e6	3.98e6
47	CG13501 (GeneID 37510)	1	3.47e6	3.96e6	3.89e6
48	CG33491 (retired record) + CG33496 (retired record) + CG33487 (retired record) + 1 more	1	3.40e6	3.90e6	3.91e6
49	stmA (GeneID 35865)	1	3.59e6	3.96e6	4.19e6
50	stmA (GeneID 35865)	2	3.61e6	4.09e6	4.10e6
51	stmA (GeneID 35865)	3	3.59e6	4.08e6	4.03e6
52	CG14439 (GeneID 31614)	1	3.67e6	4.25e6	4.07e6
53	CG31729 (GeneID 34736)	1	3.43e6	3.79e6	3.93e6
54	CG31729 (GeneID 34736)	2	3.56e6	3.91e6	4.16e6
55	veli (GeneID 43003)	1	3.49e6	3.93e6	3.95e6
56	CG15144 (GeneID 35063)	1	3.51e6	3.96e6	4.01e6
57	Oat (GeneID 40145)	1	3.46e6	3.94e6	3.90e6
58	CR15280 (GeneID 3885605)	1	3.53e6	3.98e6	4.04e6
59	Tsp66E (GeneID 39017)	1	3.53e6	3.94e6	4.08e6
60	nkd (GeneID 44843)	1	3.50e6	3.99e6	3.92e6
61	ImpL2 (GeneID 38513)	1	3.55e6	4.12e6	3.94e6
62	Mon1 (GeneID 33689)	1	3.64e6	4.23e6	3.98e6
63	opa (GeneID 40605)	1	3.46e6	3.99e6	3.84e6
64	opa (GeneID 40605)	2	3.22e6	3.76e6	3.85e6
65	opa (GeneID 40605)	3	3.45e6	3.86e6	3.99e6
66	sta (GeneID 31106)	1	3.34e6	3.82e6	3.76e6
67	CG1172 (GeneID 40647)	1	3.65e6	4.17e6	4.08e6
68	CG1172 (GeneID 40647)	2	3.56e6	4.01e6	4.05e6
